The record followed here is patent US11110070B2 (priority 2015, dated 2021).

Format in all cases: in vivo
Series [1] deals with 129S6/SvEvTac mice. Put plainly: Fighting behavior during SD bouts. The method, then: Adult aggressor CD-1 male mice were single-housed in Macrolon® polycarbonate resin cages (15.25 in×7.8 in×9.5 in) (Animal Care Systems, Inc., Centennial, Colo.). Male 129S6/SvEvTac mice (9 weeks of age) were subsequently placed into the resident. CD-1 mouse's cage. Three antagonistic encounters were allowed between the CD-1 mouse and the intruder. Each of these encounters typically lasted less than 5 min. Following the encounters, mice were separated by a polished stainless steel cage divider (Animal Care Systems, Inc., Centennial, Colo., P/N C79171), which allowed for olfactory and auditory communication, but limited visual or tactile contact. The partition was removed daily for 2 weeks and 3 antagonistic encounters were allowed between the mice each day. This procedure consistently yielded a submissive phenotype in the experimental intruder mice. Control (Ctrl) mice were group housed 4 to 5 per cage in Macrolon® polycarbonate resin cages without dividers.

Series [2] concerns 129S6/SvEvTac mice. The experiment in a line: Open field (OF) after reinstatement. The protocol: OF protocol was administered as previously described (Richardson-Jones et al., 2010).
The subject of a further series is C57BL/6NTac mice. Put plainly: NSF in CORT model. To be noted: ketamine 90 mg kg^−1 before CORT. The method, then:
Experiment 5 (Pre-ketamine and pre-fluoxetine corticosterone (CORT)): C57BL16NTac mice were injected with ketamine (10, 30, 90 mg kg^−1, i.p.) 1 week before the start of CORT, or administered fluoxetine (18 mg kg^−1 per day) in the drinking water for 3 weeks before the start of CORT. Ketamine was purchased from Merial (100 mg/ml stock solution). Fluoxetine hydrochloride (160 μg/mL, equivalent to 18 mg kg^−1 per day in the drinking water) was purchased from Anawa Trading (Zurich, Switzerland) and dissolved in 0.45% hydroxypropyl-β-cyclodextrin (β-CD) (Sigma-Aldrich, Saint-Quentin Fallavier, France) solution. Following ketamine or fluoxetine treatment, CORT was administered for 3 weeks in the drinking water. CORT (4-pregnen-11b-DIOL-3 20-DIONE 21-hemisuccinate) (35 μg/ml) from. Sigma Aldrich (Saint-Quentin Fallavier, France) was dissolved in vehicle (0.45% β-CD). Control animals received vehicle (0.45% β-CD) throughout the duration of the experiment. […]
Testing was performed as previously described (A13). […] The latency of the mice to begin eating was recorded. Immediately after the latency was recorded, the food pellet was removed from the arena. The mice were then placed into a cage and the amount of food consumed in 5 min was measured (home cage consumption), followed by an assessment of post-restriction weight. […]

For series [3], the system named is 129S6/SvEvTac mice. The experiment in a line: Learned helplessness (LH) shock escape. To be noted: ketamine 30 mg kg^−1 1 week before LH training; vs saline. The method, then:
Experiment 4 (Pre-ketamine in learned helplessness (LH)); At 8 weeks of age, a single injection of saline or ketamine (30 mg kg^−1) was administered. One week following this injection, LH training (inescapable shock) was administered. Two weeks later, mice were administered LH testing (shock escape).
The LH paradigm was used to induce depressive-like behavior (A4). In this paradigm, mice are exposed to unpredictable and uncontrollable stress (shocks) and then develop coping deficits to deal with the inescapable shocks. We modified a previously published paradigm (A5). Briefly, the procedure was conducted in a two-chamber shuttle box (model ENV 010MD; Med Associates, St. Albans, Vt.) located within a sound-attenuated cubicle. The grid floor was made of stainless steel and connected to a shock generator. The scrambled shock generator (model ENV 414S, Med Associates) created varying electrical potential differences between bars preventing an animal from avoiding shock.
Inescapable shock (training): At approximately 9 weeks of age, mice were trained in the LH paradigm. For each shuttle box, 2 animals were administered the protocol at the same time: the central door was closed, with one animal in the chamber on each side. After a 3 min habituation period, the shock deliveries began. […]

The test system of series [4] is 129S6/SvEvTac mice. The experiment in a line: 3-shock CFC, extinction and reinstatement paradigm. The method, then: A single injection of saline (0.9% NaCl) far ketamine (30 mg kg^−1) (Ketaset III, Ketamine HCl injection, Fort Dodge Animal Health, Forth Dodge, Iowa) was administered once during the course of each experiment.
A 3-shock CFC paradigm was administered as previously described (Drew et al., 2010; Denny et al., 2014). Mice were placed in the conditioning chamber and received 3 shocks 180, 240, and 300 s later (2 s, 0.75 mA) and were removed 15 s following the last shock. All sessions were scored for freezing using FreezeView2http://actimetrics.com/downloads/freezeframe/).
Extinction began 4 days after the initial 3-shock CFC procedure, or 4 days after the reinstatement procedure. Each group of mice was subjected to 2 extinction trials per day. Each extinction trial lasted 30 min, with an intertrial interval of at least 2 h. For each extinction trial, mice were placed in the same box used for CFC without receiving foot shocks. All trials were scored for freezing. The freezing presented throughout the text represents averaged freezing behavior for the first 3 min of each extinction trial.
Reinstatement took place in the same Coulbourn fear conditioning box, but with altered cues. A 1-shock CFC paradigm was administered as previously described (Drew et al., 2010; Denny et al., 2012; Denny et al., 2014), with the exception of two experiments in which the mice were administered 3 shocks.

“Also recorded” adds a separate entry of the source.

`CNC1(c2ccccc2Cl)CCCCC1=O` (racemic) [ketamine, (RS)-2-(2-chlorophenyl)-2-(methylamino)cyclohexanone]: in the series on 129S6/SvEvTac mice [1] (SD bouts, ketamine vs saline), the “number of approaches to the CD-1” value is on record as “did not differ between the groups” and the “percent of time vocalizing” value was “did not differ between the groups”. Also, in the series on 129S6/SvEvTac mice [1] (ketamine before SD, week 1 or week 2), the “total fighting bout length” value was “did not differ between groups”. Besides, the “locomotion in the OF” value with 129S6/SvEvTac mice [2] (ketamine 1 week prior to 1-shock reinstatement) is listed as “comparable locomotion during the OF; also recorded: equal levels of movement in the OF”. For the same compound, the “basic movements in the OF” value in the series on 129S6/SvEvTac mice [2] (ketamine 1 week prior to 3-shock reinstatement) is listed as “similar; also recorded: equal levels of movement in the OF”. Also, the “home cage food consumption in NSF” value in the series with C57BL/6NTac mice was “increased home cage food consumption”. Also, the “activity in the habituation phase during LH testing” value in the series with 129S6/SvEvTac mice [3] is “did not differ between groups”. In addition, the “shock response (distance traveled)” value in the series with 129S6/SvEvTac mice [4] (ketamine 1 month before CFC) is on record as “did not alter the shock response; also recorded: traveled comparably”. For the same compound, the “path length during the shocks” value in the series on 129S6/SvEvTac mice [4] (ketamine 24 h before CFC) is reported as “did not alter; also recorded: traveled equally during the shock presentation”.
